1 substance from publication PMC12069319, “Transcriptional co-regulator OCA-B/Pou2af1 restricts Th2 differentiation” can be followed below.

The chains behind the UniProt entries cited, without tags or fusion partners.
UniProt P14859: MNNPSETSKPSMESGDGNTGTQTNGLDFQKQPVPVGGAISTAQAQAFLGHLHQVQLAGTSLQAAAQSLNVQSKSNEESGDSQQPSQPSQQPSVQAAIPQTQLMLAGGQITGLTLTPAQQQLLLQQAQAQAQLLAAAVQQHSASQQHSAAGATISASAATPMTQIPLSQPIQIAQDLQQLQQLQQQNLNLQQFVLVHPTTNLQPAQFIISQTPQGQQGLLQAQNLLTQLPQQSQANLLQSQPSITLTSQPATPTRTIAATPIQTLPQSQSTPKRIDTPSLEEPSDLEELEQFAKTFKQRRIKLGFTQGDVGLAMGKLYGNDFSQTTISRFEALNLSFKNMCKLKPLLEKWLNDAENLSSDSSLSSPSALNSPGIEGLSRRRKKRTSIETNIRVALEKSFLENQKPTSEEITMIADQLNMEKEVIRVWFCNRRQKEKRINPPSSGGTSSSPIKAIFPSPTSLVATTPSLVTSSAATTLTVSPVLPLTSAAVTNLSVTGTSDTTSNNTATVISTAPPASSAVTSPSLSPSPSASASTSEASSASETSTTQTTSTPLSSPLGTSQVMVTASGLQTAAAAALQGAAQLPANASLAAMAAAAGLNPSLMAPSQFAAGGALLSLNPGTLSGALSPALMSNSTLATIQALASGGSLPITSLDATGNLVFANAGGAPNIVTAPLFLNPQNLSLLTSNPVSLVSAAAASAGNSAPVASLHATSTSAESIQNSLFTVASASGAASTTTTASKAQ
UniProt P23771: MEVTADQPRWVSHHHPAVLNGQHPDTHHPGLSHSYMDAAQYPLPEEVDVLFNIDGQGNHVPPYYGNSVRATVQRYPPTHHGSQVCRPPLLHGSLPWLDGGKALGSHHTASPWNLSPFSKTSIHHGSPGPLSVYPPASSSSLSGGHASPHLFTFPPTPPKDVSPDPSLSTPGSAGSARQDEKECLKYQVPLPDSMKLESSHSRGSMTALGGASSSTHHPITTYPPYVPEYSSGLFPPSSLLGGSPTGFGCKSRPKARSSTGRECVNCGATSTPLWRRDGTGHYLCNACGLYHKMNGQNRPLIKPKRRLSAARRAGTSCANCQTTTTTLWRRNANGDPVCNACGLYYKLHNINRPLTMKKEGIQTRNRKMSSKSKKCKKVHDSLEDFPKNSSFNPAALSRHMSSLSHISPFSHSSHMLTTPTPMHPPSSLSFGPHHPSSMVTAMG

Test [1] has as its target T1, OCA-B (POU2AF1), endogenous (human (endogenous in SupT1)) (UniProt Q16633).
T1 sequence: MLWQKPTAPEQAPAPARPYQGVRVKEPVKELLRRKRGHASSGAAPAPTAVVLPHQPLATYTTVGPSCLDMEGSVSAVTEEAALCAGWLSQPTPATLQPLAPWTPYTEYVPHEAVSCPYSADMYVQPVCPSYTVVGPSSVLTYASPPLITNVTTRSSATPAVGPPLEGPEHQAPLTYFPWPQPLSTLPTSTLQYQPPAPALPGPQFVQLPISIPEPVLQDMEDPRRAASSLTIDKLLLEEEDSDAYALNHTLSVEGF
Kind of test: co-IP; reciprocal co-IP from lysates of parental SupT1 and hOCA* cells; 50 mM Tris pH 7.5, 500 mM NaCl, 0.5 mM EDTA, 1% Triton X-100; anti-Oct1, anti-GATA3 or anti-OCA-B, Protein G Dynabeads, 4°C.

Test [2] addresses Oct1 (POU2F1) (human (endogenous in SupT1)) (UniProt P14859). Described as above.

No constants are given. Whether binding was seen depends on the method and setting. Binding seen in cells or lysates may run through a third protein.

With GATA3 (from UniProt P23771 1-443), the binding result in test [1] and in test [2] was “no binding” each time.
